In patent US20240316146A1, “METHODS OF REDUCING NEUROPATHY AND NEUROPATHIC SYMPTOMS AND TREATING CANCER” (Bexion Pharmaceuticals Inc., priority 2021, published 2024):
Values joined by “and” are separate entries in the source; they are usually repeats but may differ in a detail not shown here. Equal entries are not always repeated. The source gives many values for each of these; only a part stands here.

What was measured:
[1] = Body weights, Study 1; format: in vivo, mouse
[2] = Body weights, Study 2; format: in vivo, mouse
From the text: Body Weights: The mice were weighed daily starting 1 day prior to treatment through day 9.

[3] = system: mouse oxaliplatin model of chemotherapy-induced neuropathy; assay: Static mechanical (tactile) allodynia, von Frey filaments, Study 1; format: in vivo; details: oxaliplatin 10 mg/kg IP day 0 (+vehicle, BXQ-350 20 mg/kg IP or pregabalin 30 mg/kg IP)
Method: 60 adult male C57/BL6 mice (Charles River), 6-7 weeks of age, were housed in groups of 5 in Perspex cages, in a controlled environment of constant temperature and humidity (temperature: 21±1° C., light: dark cycle of 12:12 hours), with food and water available ad libitum. Animals were allowed to recover from transportation for at least one week before commencing experiments.
Static mechanical tactile allodynia: Static mechanical (tactile) allodynia was assessed by measurement of withdrawal threshold using calibrated (force; g) von-Frey monofilaments (Touch-Test Sensory Evaluator; Scientific Marketing Associates) applied to the plantar surface of the left hind-paw. The animals were placed in individual Perspex boxes on a raised metal mesh for 30-40 min before the test to habituate. A series of graduated von Frey hairs (0.07, 0.16, 0.4, 0.6 and 1 g) were applied in sequence with a protocol of 1 sec on 1 sec off repeated 10 times. Each hair was applied perpendicularly to the center of the ventral surface of the paw until it bent slightly. The force applied to the hind-paw of the animal to induce 5 responses out of 10 trials was recorded as paw withdrawal threshold (PWT) 50%.
Warm vials of BQX-350 were brought to room temperature and reconstituted with 4 mL water for injection via syringe. The vials were gently agitated and/or vortexed for 15-20 sec and allowed to sit at room temp for 5 mins. The rehydrated solution contained 2.2 mg/mL SapC (8.8 mg SapC per vial). About […] of the formulation was injected to achieve a target dose of 20 mg/kg in each mouse. Pregabalin was reconstituted in water and injected to achieve a target dose of 30 mg/kg in each mouse.
A two-way repeated measures ANOVA with ‘treatment’ as a between subjects effect, and ‘day’ as a within subjects effect was used (using GraphPad Prism version 9.0 for Windows, GraphPad Software, San Diego California USA), followed by Dunnett's multi comparisons test. Data is presented as mean±SEM.

[4] = Group B Oxaliplatin/Vehicle, D 5, individual mice
[5] = Group B Oxaliplatin/Vehicle, D 6, individual mice
[6] = Group B Oxaliplatin/Vehicle, D 7, individual mice
[7] = Group B Oxaliplatin/Vehicle, D 8, individual mice
[8] = Group B Oxaliplatin/Vehicle, D 9, individual mice

O=C([O-])C(=O)[O-].[NH-][C@@H]1CCCC[C@H]1[NH-].[Pt+4] (relative stereo) [Oxaliplatin, cis-[(1R,2R)-1,2-cyclohexanediamine-N,N′][oxalato(2)-O,O′] platinum]
Individual body weights ([1]; Group B Oxaliplatin/Vehicle, D 0, individual mice): 21.5 g and 22.8 g and 22.4 g and 20.6 g and 22.7 g and 20.5 g and 25.2 g and 25.4 g and 23.0 g and 22.5 g and 23.3 g and 24.5 g | Individual body weights ([1]; Group B Oxaliplatin/Vehicle, D 1, individual mice): 21.1 g (2×) and 22.2 g and 24.4 g and 20.5 g and 22.7 g and 19.7 g and 24.3 g and 24.5 g and 22.1 g and 21.8 g and 23.4 g | Individual body weights ([1]; Group B Oxaliplatin/Vehicle, D 2, individual mice): 21.5 g and 22.3 g and 22.5 g and 20.9 g and 23.7 g and 20.5 g and 24.6 g and 24.9 g and 22.8 g and 22.0 g and 21.9 g and 23.4 g | Individual body weights ([1]; Group B Oxaliplatin/Vehicle, D 3, individual mice): 21.3 g and 22.9 g and 22.4 g (2×) and 20.7 g and 23.8 g and 20.4 g and 24.9 g and 24.2 g and 23.2 g and 22.0 g and 23.0 g | Individual body weights [1, 4]: 20.7 g and 23.5 g (2×) and 22.8 g and 21.0 g and 20.6 g and 25.4 g and 23.7 g and 23.2 g (2×) and 22.1 g and 22.3 g | Individual body weights ([1]; Group B Oxaliplatin/Vehicle, D −1, individual mice): 20.5 g and 22.1 g and 21.5 g and 19.9 g and 22.0 g and 19.8 g and 24.3 g and 24.5 g and 21.9 g and 21.3 g and 22.6 g and 23.3 g | Individual body weights [1, 5]: 20.9 g and 22.8 g (2×) and 22.4 g and 20.7 g and 23.6 g and 21.3 g and 25.6 g and 24.4 g and 23.0 g and 22.3 g and 23.8 g | Individual body weights [1, 6]: 21.8 g and 23.6 g and 23.1 g and 21.5 g and 24.5 g and 21.6 g and 26.4 g and 25.1 g and 23.8 g and 22.7 g and 23.5 g and 24.7 g | Individual body weights [1, 7]: 22.1 g and 23.1 g (2×) and 23.0 g and 21.0 g and 24.0 g and 20.9 g and 25.7 g and 24.9 g and 23.6 g and 22.6 g and 24.4 g | Individual body weights [1, 8]: 22.4 g and 23.6 g and 23.1 g and 21.2 g and 24.8 g and 21.6 g and 26.4 g and 25.3 g and 24.1 g and 23.5 g and 23.3 g and 24.5 g | Individual body weights [2, 4]: 25.0 g and 23.5 g and 23.3 g and 22.4 g and 23.0 g and 20.6 g and 24.9 g | Individual body weights [2, 5]: 25.3 g (2×) and 23.7 g (2×) and 23.2 g and 23.0 g and 23.9 g and 23.1 g and 22.9 g and 24.0 g and 21.8 g and 25.4 g | Individual body weights [2, 6]: 25.5 g and 23.6 g and 23.4 g (2×) and 22.7 g and 25.7 g and 24.5 g (2×) and 23.3 g and 23.8 g and 21.5 g and 25.8 g | Individual body weights [2, 7]: 25.1 g and 23.3 g and 23.4 g (2×) and 21.5 g and 25.3 g and 23.6 g and 23.0 g and 22.7 g and 24.1 g and 21.2 g and 25.4 g | Individual body weights [2, 8]: 25.3 g and 23.5 g and 23.4 g and 22.2 g and 25.5 g and 24.0 g and 23.7 g and 23.3 g and 23.1 g and 24.5 g and 22.0 g and 25.7 g

CC(C)C[C@H](CN)CC(=O)O [Pregabalin]
Individual Paw Withdrawal Threshold 50% (von Frey filaments) ([3]; Day 3, individual mice): 0.4 g | Individual Paw Withdrawal Threshold 50% (von Frey filaments) ([3]; Day 5, individual mice): 1.0 g (7×) and 0.6 g (3×) and 0.4 g (2×) | Individual Paw Withdrawal Threshold 50% (von Frey filaments) ([3]; Day 7, individual mice): 1.0 g (6×) and 0.4 g (4×) and 0.6 g (2×) | Individual Paw Withdrawal Threshold 50% (von Frey filaments) ([3]; Day 9, individual mice): 1.0 g (9×) and 0.4 g and 0.6 g (2×) | Individual body weights ([1]; Group E Pregabalin/Oxaliplatin, pregabalin target dose 30 mg/kg, D 0, individual mice, 30 mg/kg): 25.4 g and 23.8 g and 21.1 g and 22.3 g and 20.6 g and 21.7 g and 23.3 g and 22.6 g and 22.2 g and 24.5 g and 24.0 g and 23.9 g | Individual body weights ([1]; Group E Pregabalin/Oxaliplatin, pregabalin target dose 30 mg/kg, D 1, individual mice, 30 mg/kg): 23.9 g and 22.7 g and 20.5 g and 21.3 g (2×) and 19.7 g and 20.8 g and 22.2 g and 21.4 g and 23.7 g and 22.9 g and 22.8 g | Individual body weights ([1]; Group E Pregabalin/Oxaliplatin, pregabalin target dose 30 mg/kg, D 2, individual mice, 30 mg/kg): 24.8 g and 23.4 g and 20.8 g and 21.6 g and 20.0 g and 20.6 g and 22.3 g and 21.7 g and 21.3 g and 24.0 g and 23.3 g and 23.1 g | Individual body weights ([1]; Group E Pregabalin/Oxaliplatin, pregabalin target dose 30 mg/kg, D 3, individual mice, 30 mg/kg): 24.7 g and 23.1 g and 20.8 g (2×) and 19.5 g and 20.0 g and 21.9 g and 21.8 g and 21.0 g and 24.0 g and 23.2 g and 22.7 g | Individual body weights ([1]; Group E Pregabalin/Oxaliplatin, pregabalin target dose 30 mg/kg, D 4, individual mice, 30 mg/kg): 24.0 g and 22.5 g and 20.8 g (3×) and 20.3 g and 18.9 g and 19.5 g and 21.4 g and 23.2 g and 22.8 g and 22.4 g | Individual body weights ([1]; Group E Pregabalin/Oxaliplatin, pregabalin target dose 30 mg/kg, D 5, individual mice, 30 mg/kg): 24.8 g and 23.5 g and 21.6 g and 20.3 g and 19.0 g and 19.2 g and 22.0 g and 21.5 g and 21.2 g and 24.2 g and 22.2 g and 23.2 g | Individual body weights ([1]; Group E Pregabalin/Oxaliplatin, pregabalin target dose 30 mg/kg, D 7, individual mice, 30 mg/kg): 26.0 g and 24.8 g and 22.2 g and 21.7 g and 20.3 g and 20.2 g and 23.2 g and 23.5 g and 22.7 g and 25.6 g and 24.3 g and 24.5 g | Individual body weights ([1]; Group E Pregabalin/Oxaliplatin, pregabalin target dose 30 mg/kg, D 8, individual mice, 30 mg/kg): 25.3 g and 24.0 g and 22.2 g and 21.6 g and 20.0 g and 20.8 g and 23.1 g and 23.2 g and 22.6 g and 25.1 g and 24.5 g and 24.1 g | Individual body weights ([1]; Group E Pregabalin/Oxaliplatin, pregabalin target dose 30 mg/kg, D 9, individual mice, 30 mg/kg): 26.4 g and 24.8 g (3×) and 23.1 g and 22.5 g and 21.2 g and 20.9 g and 23.8 g and 24.0 g and 23.4 g and 25.6 g | Individual body weights ([2]; Group E Oxaliplatin/Pregabalin, D 5, individual mice): 25.1 g (2×) and 26.0 g and 23.8 g (2×) and 24.5 g (2×) and 23.0 g | Individual body weights ([2]; Group E Oxaliplatin/Pregabalin, D 6, individual mice): 21.8 g and 23.0 g (2×) and 27.1 g and 25.5 g (2×) and 23.5 g and 24.3 g and 23.9 g and 25.0 g and 22.8 g and 25.1 g | Individual body weights ([2]; Group E Oxaliplatin/Pregabalin, D 7, individual mice): 22.0 g and 23.9 g and 28.0 g and 23.8 g and 25.9 g (2×) and 24.0 g and 24.9 g and 24.6 g and 25.5 g and 23.6 g and 25.2 g | Individual body weights ([2]; Group E Oxaliplatin/Pregabalin, D 8, individual mice): 22.2 g and 23.3 g and 27.2 g and 23.2 g and 25.6 g and 25.4 g and 23.8 g and 24.6 g and 24.1 g and 24.8 g and 23.1 g and 24.5 g | Individual body weights ([2]; Group E Oxaliplatin/Pregabalin, D 9, individual mice): 22.1 g and 24.0 g and 27.8 g and 23.7 g and 25.6 g and 25.8 g and 24.3 g and 25.0 g and 24.8 g and 25.1 g and 23.5 g and 24.9 g
